Laboratory results reported in publication doi:10.1101/2021.01.27.428455 (bioRxiv, 2021).
Read-outs that look alike come from different tables or passages of the source. These are yes or no findings as the source states them, for the method shown. Binding can be weak; no strength is given. For some of these results: Sequences can lack the tags named with a protein. For some of these results: Binding seen in cells or lysates may run through a third protein. Values belong to the molecule of their own block, whether it stands above or below them.

Columns and labels:
[1] = molecular target: T1, Lactococcus lactis Csm2 with N-terminal His6-tag (Lactococcus lactis) (UniProt L0CFW2); experiment: cryo-EM structure
T1 sequence: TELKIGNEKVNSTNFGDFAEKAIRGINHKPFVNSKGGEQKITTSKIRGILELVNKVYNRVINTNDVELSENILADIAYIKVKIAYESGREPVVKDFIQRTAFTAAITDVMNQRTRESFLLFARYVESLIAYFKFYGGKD

[2] = molecular target: T1, Lactococcus lactis Csm2 with N-terminal His6-tag (Lactococcus lactis); experiment: cryo-EM structure; remark: listed apart in the source
[3] = molecular target: T2, Lactococcus lactis Csm3 with N-terminal His6-tag (ΔCsm2-LlCsm) (Lactococcus lactis) (UniProt L0CEA3); experiment: co-purification
T2 sequence: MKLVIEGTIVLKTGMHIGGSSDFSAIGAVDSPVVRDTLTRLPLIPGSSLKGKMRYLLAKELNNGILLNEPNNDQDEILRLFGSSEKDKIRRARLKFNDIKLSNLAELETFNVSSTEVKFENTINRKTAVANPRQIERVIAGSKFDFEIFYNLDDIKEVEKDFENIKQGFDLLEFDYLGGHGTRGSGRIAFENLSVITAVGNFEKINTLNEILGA

[4] = molecular target: T1, Lactococcus lactis Csm2 with N-terminal His6-tag (Lactococcus lactis); experiment: co-purification
[5] = molecular target: Lactococcus lactis Csm1 Asp14Asn (Lactococcus lactis); experiment: cryo-EM structure
[6] = molecular target: Lactococcus lactis Csm1 Asp14Asn (Lactococcus lactis); experiment: cryo-EM structure; remark: listed apart in the source
[7] = molecular target: Lactococcus lactis Csm1 Asp14Asn (Lactococcus lactis); experiment: cryo-EM structure; remark: listed apart in the source

binding [1]: binds | binding [2]: binds
Molecule: Lactococcus lactis Csm1 Asp14Asn

binding [3]: binds | binding [4]: binds
Molecule: Lactococcus lactis Csm1 (Cas10), wild type

binding [5]: binds | binding [6]: binds | binding [7]: binds
B1: Lactococcus lactis Csm4 (protein, UniProt L0CFH1)
chain: MKIIKLYFESPVHFGEKRLSESKITFSADTLFSALMIEAVGLGKEDEFYQLASNNLVKFSDAFPFIDQYYYIPKPMFNLKLEKEDENPSKAFKKLLYVPIDSLEDYLSGGLDAYFERESFNLGKLALSEKVQQHDFKDSEPYNVGTFTFKENTGLYVLIEQTHPLLEELLENLQYSGIGGKRNSGYGKFKFEILEDSDIEDLFSAKGNRKILLSGALPKDAELEQALKNASYLLERRGGFVQSDTYATNLVKKQDLYVFKSGSTFENSFDGDIYQVGKKGNHPVYKYAKSFFLEVSV
